# The list shows a part of the results. Shown are side measurements of this screen, not its main read-out; they come without a call. Most of these compounds were active or inconclusive in the main read-out, so they are no random draw. Words in brackets tell the shape of the fitted curve; partial curves, single points and poor fits give uncertain potencies.
# Experiment: qHTS Assay to Find Inhibitors of Chronic Active B-Cell Receptor Signaling
# Details: ABC-DLBCL IkBa-CBG/CBR reporter, luminescence ratio (green luciferase fused to IkBa over red control in TMD8 lymphoma cells), 4 h
# How it was run: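 Cell line TMD8 (human ABC DLBCL), stably expressing tet-inducible CBG68-IkBa fusion and CBR; IMDM/0.5% FBS; cpd up to 46 uM; dox induction, 4 h, 37C/5% CO2; dual luminescence; green/red ratio; MG132 control.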
# [1] = measured here: CBR red luminescence, cell number
# [2] = measured here: IkBa-CBG green luminescence
smiles,measurement,setting,value
c1ccc2oc(C3=NNC(=NC4CC4)SC3)cc2c1,AC50,[1],"11.6 µM [falling, partial curve]"
same,AC50,[2],"29.1 µM [falling, single point]"
COc1ccc(C(=O)NC(=S)NCCO)cc1Br,AC50,[1],"35.5 µM [falling, single point]"
COc1cccc(/C=N/NC(=O)CSc2ccccc2C)c1OC,AC50,[1],"1.64 µM [rising, full curve, poor fit]"
CCCCn1[nH]c(-c2ccccc2)cc1=O,AC50,[1],"29.1 µM [rising, single point]"
same,AC50,[2],"29.1 µM [falling, single point]"
Cc1[nH]n(C(N)=S)c(=O)c1N=Nc1ccc(S(=O)(=O)N2CCCCCC2)cc1,AC50,[1],"29.1 µM [rising, single point]"
O=C(CCC(=O)c1cccs1)Nc1ccc(F)c(F)c1F,AC50,[1],"16.4 µM [falling, partial curve]"
O=C(Nc1ccc(Br)cc1)c1cccc(OC(=S)N2CCOCC2)c1,AC50,[1],"12.6 µM [falling, partial curve, poor fit]"
CN(c1ccccc1)c1ncnc2c1cnn2C,AC50,[1],"0.501 µM [rising, full curve, poor fit]"
CCOc1cc(/C=C/c2cc(C(=O)O)c3ccccc3n2)ccc1O,AC50,[1],"4.11 µM [falling, full curve]"
COc1cc2cc(Br)cc(Br)c2nc1C,AC50,[1],"16.4 µM [rising, partial curve]"
COc1ccc(/C=C(/CC(=O)NCc2ccc(Cl)cc2)c2nc3ccccc3s2)cc1,AC50,[1],"2.91 µM [rising, partial curve, poor fit]"
CC(C)(C)c1ccc(-c2nnc3sc(-c4ccccn4)nn23)cc1,AC50,[1],"12.6 µM [falling, single point]"
C=CCn1c(SCC(=O)Nc2nc(C)cs2)nnc1C(C)NC(=O)c1ccccc1Cl (configuration not stated),AC50,[1],"13 µM [falling, partial curve, poor fit]"
same,AC50,[2],"4.61 µM [rising, partial curve, poor fit]"
CCOC(=O)C1=C(COc2ccccc2)NC(=O)NC1c1ccc(Br)cc1 (configuration not stated),AC50,[1],"35.5 µM [falling, single point]"
CCc1noc(C)c1C(=O)NNC(=O)c1ccccc1Cl,AC50,[1],"1.3 µM [rising, full curve]"
O=C(O)C1=CC[C@@H](c2ccc(Cl)cc2)N(S(=O)(=O)c2ccc(Cl)cc2)[C@H]1c1ccccc1,AC50,[2],"7.31 µM [rising, partial curve, poor fit]"
CC1NC(=O)NC1CCCCCC(=O)NCCc1ccccc1 (configuration not stated),AC50,[1],"20.6 µM [rising, single point]"
COc1ccccc1-c1nn2c(=O)cc(C)nc2s1,AC50,[1],"0.411 µM [falling, partial curve, poor fit]"
Cc1nc2cc(-c3ccc(Cl)cc3)nn2c(C)c1CCC(=O)NCc1ccco1,AC50,[1],"0.366 µM [falling, full curve]"
CNC(=S)N/N=C/c1c(C(=O)OC)cnn1-c1ccc(F)cc1F,AC50,[1],"8.91 µM [falling, partial curve]"
COc1ccc(NC(=S)Nc2ccc(OC)cc2OC)c(OC)c1,AC50,[1],"29.1 µM [rising, partial curve, poor fit]"
CC(C)CCNC(=O)c1cc2c(=O)n3ccccc3nc2s1,AC50,[1],"7.08 µM [rising, full curve, poor fit]"
Cc1nnc2sc(-c3csc4c3CCCC4)nn12,AC50,[2],"25.9 µM [falling, partial curve, poor fit]"
Cc1cc(C)c2c(=O)[nH]c(SCC(=O)NCc3ccccc3)nc2n1,AC50,[1],"29.1 µM [falling, single point]"
CC(c1ccccc1)C1CC(=O)N(CC(=O)O)C1=O (configuration not stated),AC50,[1],"29.1 µM [falling, single point]"
N#C/C(=C(/O)c1cccc(F)c1)c1nc2ccccc2s1,AC50,[1],"0.562 µM [falling, full curve]"
Cc1cc(=O)n2c(n1)NC(=NCc1ccccc1)NC2c1ccccc1 (configuration not stated),AC50,[1],"25.1 µM [falling, single point]"
same,AC50,[2],"0.794 µM [rising, full curve, poor fit]"
Cc1ccc(OCCn2c(=O)cnc3ccccc32)cc1,AC50,[1],"25.9 µM [rising, single point]"
same,AC50,[2],"20.6 µM [falling, single point]"
CNC(=O)c1cc(C(=O)c2ccc(Cl)cc2)c(Br)[nH]1,AC50,[1],"6.31 µM [rising, full curve, poor fit]"
CC(=O)c1cccc(Nc2nc(-c3ccccc3)cs2)c1,AC50,[1],"35.5 µM [falling, single point]"
Cc1c(-c2ccccc2)nc2ccccc2c1C(=O)O,AC50,[1],"0.164 µM [rising, full curve, poor fit]"
CC(C)(C)NC(=O)NC(=O)COC(=O)c1nc(-c2ccccc2)n(-c2cccc(C(F)(F)F)c2)n1,AC50,[1],"7.31 µM [rising, partial curve]"
CC(C)n1c(=S)[nH]c2cc(C(F)(F)F)ccc21,AC50,[1],"0.891 µM [rising, full curve, poor fit]"
CC(C)CC(=O)NC(=S)Nc1ccc(NC(=O)c2ccco2)cc1,AC50,[1],"23.1 µM [rising, single point]"
O=[N+]([O-])c1ccc(COc2ccc(Br)cc2CN2CCOCC2)cc1,AC50,[1],"3.98 µM [rising, partial curve]"
O=C(NCCC1CCCCN1S(=O)(=O)c1cccs1)C(=O)Nc1ccccc1 (configuration not stated),AC50,[1],"9.2 µM [falling, partial curve]"
same,AC50,[2],"3.26 µM [rising, full curve, poor fit]"
O=C(O)/C=C\C(=O)NC1CCCCC1,AC50,[1],"25.9 µM [rising, single point]"
O=[N+]([O-])c1ccc(Sc2ncccn2)c([N+](=O)[O-])c1,AC50,[2],"12.6 µM [rising, partial curve, poor fit]"
O=c1oc2ccccc2c(N2CCCC2)c1[N+](=O)[O-],AC50,[1],"11.2 µM [falling, partial curve]"
O=C(NC(=S)Nc1cccc2c(O)cccc12)c1ccccc1[N+](=O)[O-],AC50,[1],"0.562 µM [falling, full curve, poor fit]"
C/C(=N\N=C(/N)SC1CC(=O)N(c2ccc(Cl)cc2)C1=O)c1cccs1 (configuration not stated),AC50,[1],"16.4 µM [falling, single point]"
Cc1ccc(-c2cc(C(=O)N3CCCC3)no2)cc1,AC50,[1],"9.2 µM [falling, partial curve]"
Cc1cc(S(=O)(=O)N2CCCOC2CNC(=O)C(=O)NCc2ccco2)ccc1F (configuration not stated),AC50,[1],"0.112 µM [rising, full curve, poor fit]"
Cc1nc2c(c3c1[nH]c1ccccc13)C(=O)CC(C)(C)C2,AC50,[1],"14.1 µM [falling, single point]"
same,AC50,[2],"3.55 µM [rising, full curve, poor fit]"
COc1ccc([C@H]2CC(=O)C=C(c3cccc(C#N)c3)C2)cc1,AC50,[1],"1.46 µM [rising, full curve, poor fit]"
OC(COc1ccc(F)cc1)CN1CCN(CC(O)COc2ccc(F)cc2)CC1 (configuration not stated),AC50,[1],"14.1 µM [rising, single point]"
C=C(C)Cn1c(CCCNC(=O)CC)nc2ccccc21,AC50,[1],"13 µM [rising, partial curve]"
CC(=O)N(c1c(C)n(C)n(-c2ccccc2)c1=O)C1(C(=O)NC2CCCCC2)CCCCC1,AC50,[1],"2.59 µM [falling, single point]"
Cc1ccc(N2C(=O)N(CC(=O)Nc3cccc([N+](=O)[O-])c3C)C(=O)C2C)cc1 (configuration not stated),AC50,[1],"3.26 µM [rising, full curve, poor fit]"
O=C(Nc1nnc(C2CCCO2)s1)c1ccc(Br)cc1 (configuration not stated),AC50,[1],"2.06 µM [falling, full curve]"
Cc1cc(NC(=O)CCC(=O)N(Cc2ccco2)C(C(=O)NC2CCCC2)c2ccccc2C)no1 (configuration not stated),AC50,[1],"25.9 µM [falling, single point]"
O=C(CSCc1ccc(Cl)cc1)Nc1cccc(C(=O)O)c1,AC50,[1],"11.2 µM [falling, partial curve]"
O=C(CNC1CCCCC1)Nc1ccc([N+](=O)[O-])cc1C(=O)Nc1ccccc1F,AC50,[1],"22.4 µM [falling, single point]"
CCOC(=O)C1=C(C)OC(N)=C(C#N)C1c1cc(F)ccc1F (configuration not stated),AC50,[1],"20.6 µM [falling, single point]"
CCOC(=O)CNC(=O)CCNS(=O)(=O)c1ccc2c(c1)c(=O)n(C)c(=O)n2C,AC50,[1],"20.6 µM [falling, single point]"
Cc1ccc(NC(=O)c2cccc(OCc3c(C)noc3C)c2)cc1,AC50,[1],"2.59 µM [falling, full curve]"
O=c1c2ccccc2sc2ccc(Cl)cc12,AC50,[1],"2.06 µM [rising, full curve]"
Cc1ccc(NC(=O)CN2CCCCCC2)c(Br)c1,AC50,[1],"11.2 µM [falling, partial curve]"
Cc1cc2c(cc(C(=O)OC(C(=O)NCC3CCCO3)C(C)C)n2C)o1 (configuration not stated),AC50,[1],"4.47 µM [rising, single point]"
COC(=O)NC1(C(F)(F)F)C(=O)NC(C)=C1C(=O)OC (configuration not stated),AC50,[1],"6.51 µM [rising, single point]"
same,AC50,[2],"3.66 µM [falling, partial curve, poor fit]"
COc1ccc(Oc2nc3ccccc3n(C)c2=O)cc1,AC50,[1],"0.058 µM [rising, full curve, poor fit]"
O=C(O)CN1C(=O)C(=O)N(Cc2ccc(Cl)cc2Cl)C1=O,AC50,[1],"35.5 µM [rising, single point]"
Cc1ccc2c(c1)C(=O)N1[C@H]3c4ccccc4OC[C@@H]3[C@H](c3ccccc3)[C@]1(C)C(=O)N2,AC50,[1],"29.1 µM [falling, single point]"
same,AC50,[2],"2.31 µM [rising, full curve, poor fit]"

# Four entries picked at random from the list so far:
smiles,measurement,setting,value
Cc1cc(C)c2c(=O)[nH]c(SCC(=O)NCc3ccccc3)nc2n1,AC50,[1],"29.1 µM [falling, single point]"
Cc1ccc(-c2cc(C(=O)N3CCCC3)no2)cc1,AC50,[1],"9.2 µM [falling, partial curve]"
O=C(NCCC1CCCCN1S(=O)(=O)c1cccs1)C(=O)Nc1ccccc1 (configuration not stated),AC50,[2],"3.26 µM [rising, full curve, poor fit]"
Cc1nc2cc(-c3ccc(Cl)cc3)nn2c(C)c1CCC(=O)NCc1ccco1,AC50,[1],"0.366 µM [falling, full curve]"

# At a glance, some entries already given.
smiles,measurement,setting,value
COc1ccc(/C=C(/CC(=O)NCc2ccc(Cl)cc2)c2nc3ccccc3s2)cc1,AC50,[1],"2.91 µM [rising, partial curve, poor fit]"
CC(C)(C)c1ccc(-c2nnc3sc(-c4ccccn4)nn23)cc1,AC50,[1],"12.6 µM [falling, single point]"

# From PubChem BioAssay AID493014 (National Center for Advancing Translational Sciences (NCATS), 2011)
